From the supplement of paper PMC4807443
Where a name gives a salt, the structure may show the parent alone. This is one part of the list. The numbers are fractions of the control, whatever unit the source prints. Most entries show no effect beyond the scatter of the controls.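 MIN6, a mouse insulinoma beta-cell line, stably carries a lentiviral reporter where Pdx1 and Ins1 promoters each drive a nuclear fluorescent protein; Hoechst staining and automated imaging counted cells. Drugs were candidate hits if Ins1 promoter readout exceeded two median absolute deviations from DMSO controls while Pdx1 activity stayed near normal.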

These compounds were tested on MIN6 (assay: % Pdx1+ Ins1+ (double-positive, mature) cells relative to DMSO control (fold of DMSO control); higher = more mature Ins1 promoter-active cells). Details: 8.5 µM; 48 h; glucose 5 mM.

Row | Compound | % Pdx1+ Ins1+
1 | OCC(O)CN1CCN(c2ccccc2)CC1 (racemic) [Dropropizine (R,S)] | 1.09
2 | CCn1cc(C(=O)O)c(=O)c2cc(F)c(N3CCNCC3)nc21 [Enoxacin] | 0.912
3 | CCCc1ncc(C[n+]2ccccc2C)c(N)n1 [Amprolium hydrochloride] | 1.18
4 | CC(C(=O)O)c1cccc(Oc2ccccc2)c1 (centres undefined) [Fenoprofen calcium salt dihydrate] | 0.839
5 | Cc1ccc(N(CC2=NCCN2)c2cccc(O)c2)cc1 [Phentolamine hydrochloride] | 0.958
6 | Cc1c(Cl)cccc1Nc1ccccc1C(=O)O [Tolfenamic acid] | 0.935
7 | CCCSc1ccc2[nH]c(NC(=O)OC)nc2c1 [Albendazole] | 1.09
8 | CO[C@H]1/C=C/O[C@@]2(C)Oc3c(C)c(O)c4c(O)c(c(/C=N/N5CCN(C)CC5)c(O)c4c3C2=O)NC(=O)/C(C)=C\C=C\[C@H](C)[C@H](O)[C@@H](C)[C@@H](O)[C@@H](C)[C@H](OC(C)=O)[C@@H]1C [Rifampicin] | 0.848
9 | CC[C@H]1OC(=O)[C@H](C)[C@@H](O[C@H]2C[C@@](C)(OC)[C@@H](O)[C@H](C)O2)[C@H](C)[C@@H](O[C@@H]2O[C@H](C)C[C@H](N(C)C)[C@H]2O)[C@](C)(O)C[C@@H](C)C(=O)[C@H](C)[C@@H](O)[C@]1(C)O [Erythromycin] | 0.947
10 | O=C1c2ccccc2C(=O)C1c1ccccc1 [Phenindione] | 0.801
11 | Clc1ccc2c(c1)C(N1CCNCC1)=Nc1ccccc1O2 [Amoxapine] | 1.03
12 | O=C(O)CCc1nc(-c2ccccc2)c(-c2ccccc2)o1 [Oxaprozin] | 1.02
13 | c1ccc(CC2=NCCN2)cc1 [Tolazoline hydrochloride] | 1.02
14 | CC(C)(Oc1ccc(CCNC(=O)c2ccc(Cl)cc2)cc1)C(=O)O [Bezafibrate] | 0.956
15 | OCCN1CCN(CCCN2c3ccccc3Sc3ccc(C(F)(F)F)cc32)CC1 [Fluphenazine dihydrochloride] | 0.995
16 | C[C@]12CCC(=O)C=C1CC[C@@H]1[C@@H]2C(=O)C[C@@]2(C)[C@H]1CC[C@]2(O)C(=O)CO [Cortisone] | 1.16
17 | COCCCC/C(=N\OCCN)c1ccc(C(F)(F)F)cc1 [Fluvoxamine maleate] | 0.814
18 | O=C(O)C1CCCNC1 (racemic) [(±)-Nipecotic acid] | 0.896
19 | CN(C)[C@@H]1C(O)=C(C(N)=O)C(=O)[C@@]2(O)C(O)=C3C(=O)c4c(O)cccc4[C@@](C)(O)[C@H]3C[C@@H]12 [Tetracycline hydrochloride] | 1.03
20 | O=C(O)COC(=O)Cc1ccccc1Nc1c(Cl)cccc1Cl [Aceclofenac] | 1.05
21 | CC1CC(OC(=O)C(O)c2ccccc2)CC(C)(C)N1C (centres undefined) [Eucatropine hydrochloride] | 0.974
22 | C1CCN2C[C@@H]3C[C@@H](CN4CCCC[C@@H]34)[C@H]2C1 [Sparteine (-)] | 0.969

Sorted by molecular weight (falling): part of the list above.
Row | Compound | % Pdx1+ Ins1+
9 | CC[C@H]1OC(=O)[C@H](C)[C@@H](O[C@H]2C[C@@](C)(OC)[C@@H](O)[C@H](C)O2)[C@H](C)[C@@H](O[C@@H]2O[C@H](C)C[C@H](N(C)C)[C@H]2O)[C@](C)(O)C[C@@H](C)C(=O)[C@H](C)[C@@H](O)[C@]1(C)O [Erythromycin] | 0.947
16 | C[C@]12CCC(=O)C=C1CC[C@@H]1[C@@H]2C(=O)C[C@@]2(C)[C@H]1CC[C@]2(O)C(=O)CO [Cortisone] | 1.16
12 | O=C(O)CCc1nc(-c2ccccc2)c(-c2ccccc2)o1 [Oxaprozin] | 1.02

Additional records.

Row | Compound | % Pdx1+ Ins1+
23 | COc1ccc2c(OC)c3ccoc3nc2c1OC [Skimmianine] | 1
24 | CCN1CCC[C@H]1CNC(=O)c1c(OC)ccc(Br)c1OC [Remoxipride Hydrochloride] | 0.954
25 | Cc1nnc(NS(=O)(=O)c2ccc(N)cc2)s1 [Sulfamethizole] | 0.932
26 | C[C@H]1C[C@H]2[C@@H]3CCC4=CC(=O)C=C[C@]4(C)[C@@]3(F)[C@@H](O)C[C@]2(C)[C@@]1(O)C(=O)CO [Betamethasone] | 0.98
27 | Oc1ccc(OCc2ccccc2)cc1 [Monobenzone] | 0.648
28 | CC(C(=O)O)c1ccc(N2Cc3ccccc3C2=O)cc1 (centres undefined) [Indoprofen] | 0.86
29 | CC1=Nc2ccc(Cl)cc2S(=O)(=O)N1 [Diazoxide] | 1.05
30 | Cc1ccc(Cl)c(Nc2ccccc2C(=O)O)c1Cl [Meclofenamic acid sodium salt monohydrate] | 1.07
31 | COC(=O)Nc1nc2ccc(SC(C)C)cc2[nH]1 [Methiazole] | 0.943
32 | CCN1CCN(C(=O)N[C@@H](C(=O)N[C@@H]2C(=O)N3C(C(=O)O)=C(CSc4nnnn4C)CS[C@H]23)c2ccc(O)cc2)C(=O)C1=O [Cefoperazone dihydrate] | 0.958
33 | CCCCNc1ccc(C(=O)OCCOCCOCCOCCOCCOCCOCCOCCOCCOC)cc1 [Benzonatate] | 1.07
34 | CCn1nc(C(=O)O)c(=O)c2cc3c(cc21)OCO3 [Cinoxacin] | 0.866
35 | Cc1cc(/C=C/c2ccc3cc(N(C)C)ccc3[n+]2C)c(C)n1-c1ccccc1 [Pyrvinium pamoate] | 0.0824
36 | O=C(O)/C=C/c1ccc(Cn2ccnc2)cc1 [Ozagrel hydrochloride] | 0.874
37 | CC[C@H]1OC(=O)[C@H](C)[C@@H](O[C@H]2C[C@@](C)(OC)[C@@H](O)[C@H](C)O2)[C@H](C)[C@@H](O[C@@H]2O[C@H](C)C[C@H](N(C)C)[C@H]2O)[C@](C)(O)C[C@@H](C)[C@@H]2N[C@@H](COCCOC)O[C@H]([C@H]2C)[C@]1(C)O [Dirithromycin] | 0.969
38 | O=C1CC2(CCCC2)CC(=O)N1CCCCN1CCN(c2ncccn2)CC1 [Buspirone hydrochloride] | 0.93
39 | CC(C)CC(=O)N[C@H](C(=O)N[C@H](C(=O)N[C@@H](CC(C)C)[C@@H](O)CC(=O)N[C@@H](C)C(=O)N[C@@H](CC(C)C)[C@@H](O)CC(=O)O)C(C)C)C(C)C [Pepstatin A] | 0.985
40 | C[C@H](O)C(=O)Nc1c(I)c(C(=O)NC(CO)CO)c(I)c(C(=O)NC(CO)CO)c1I [Iopamidol] | 1.07
41 | CO/N=C(\C(=O)N[C@@H]1C(=O)N2C(C(=O)O)=C(COC(N)=O)CS[C@H]12)c1ccco1 [Cefuroxime sodium salt] | 0.788
42 | O=C(NCC(O)CO)c1c(I)c(C(=O)NCC(O)CO)c(I)c(N(CCO)C(=O)CO)c1I (centres undefined) [Ioversol] | 0.92
43 | Nc1ccc(S(=O)(=O)Nc2ccnn2-c2ccccc2)cc1 [Sulfaphenazole] | 1.12
44 | CC1Cc2ccccc2N1NC(=O)c1ccc(Cl)c(S(N)(=O)=O)c1 (centres undefined) [Indapamide] | 1.1
